Experimental data taken from PMC11357397 (Pharmaceuticals, 2024).
Some peptides are written in HELM: one residue between dots, names in brackets for other building blocks, links after the first $.

Assay: general procedure: Fmoc solid-phase peptide synthesis; H-His-(Trt)-Cl-2-chlorotrityl resin (loading capacity = 0.724 mmol/g); HCTU, DIPEA
Settings: whole synthesis, analytical HPLC, scale of the general procedure 0.50 mmol

PEPTIDE1{W.R.H.W.R.H.W.R.H}$$$$V2.0
final HPLC purity: 95.741%
